# Measured values as given in ChEMBL document CHEMBL4316593 (Eur J Med Chem, 2019).
# Further values from the same series stand in other lists.
# Tests used:
# Type in all cases: cell-based
# Conditions in all cases: U-87MG ATCC
# [1] = Inhibition of RTK/PI3K/AKT/mTOR signaling in human U87 cells assessed as down regulation of WBP11 gene expression at cytotoxic IC50 measured after 48 hrs relative to control
# [2] = Inhibition of RTK/PI3K/AKT/mTOR signaling in human U87 cells assessed as down regulation of PSMD11 gene expression at cytotoxic IC50 measured after 48 hrs relative to control
# [3] = Inhibition of RTK/PI3K/AKT/mTOR signaling in human U87 cells assessed as down regulation of SKAP2 gene expression at cytotoxic IC50 measured after 48 hrs relative to control
# [4] = Inhibition of RTK/PI3K/AKT/mTOR signaling in human U87 cells assessed as down regulation of PHTF1 gene expression at cytotoxic IC50 measured after 48 hrs relative to control
# [5] = Inhibition of RTK/PI3K/AKT/mTOR signaling in human U87 cells assessed as up regulation of ZNF467 gene expression at cytotoxic IC50 measured after 48 hrs relative to control
# [6] = Inhibition of RTK/PI3K/AKT/mTOR signaling in human U87 cells assessed as down regulation of TSPYL2 gene expression at cytotoxic IC50 measured after 48 hrs relative to control
# [7] = Inhibition of RTK/PI3K/AKT/mTOR signaling in human U87 cells assessed as up regulation of long intergenic non-protein coding RNA 511 gene expression at cytotoxic IC50 measured after 48 hrs relative to control
# [8] = Inhibition of RTK/PI3K/AKT/mTOR signaling in human U87 cells assessed as down regulation of WWC3 gene expression at cytotoxic IC50 measured after 48 hrs relative to control
# [9] = Inhibition of RTK/PI3K/AKT/mTOR signaling in human U87 cells assessed as up regulation of cartilage intermediate layer protein 2 gene expression at cytotoxic IC50 measured after 48 hrs relative to control
# [10] = Inhibition of RTK/PI3K/AKT/mTOR signaling in human U87 cells assessed as down regulation of SCML1 gene expression at cytotoxic IC50 measured after 48 hrs relative to control
# [11] = Inhibition of RTK/PI3K/AKT/mTOR signaling in human U87 cells assessed as down regulation of PSMD7 gene expression at cytotoxic IC50 measured after 48 hrs relative to control
# [12] = Inhibition of RTK/PI3K/AKT/mTOR signaling in human U87 cells assessed as down regulation of ERP44 gene expression at cytotoxic IC50 measured after 48 hrs relative to control
# [13] = Inhibition of RTK/PI3K/AKT/mTOR signaling in human U87 cells assessed as up regulation of GDA gene expression at cytotoxic IC50 measured after 48 hrs relative to control
# [14] = Inhibition of RTK/PI3K/AKT/mTOR signaling in human U87 cells assessed as up regulation of PIH1 domain containing 1 gene expression at cytotoxic IC50 measured after 48 hrs relative to control
# [15] = Inhibition of RTK/PI3K/AKT/mTOR signaling in human U87 cells assessed as up regulation of lysine acetyltransferase 2A gene expression at cytotoxic IC50 measured after 48 hrs relative to control
# [16] = Inhibition of RTK/PI3K/AKT/mTOR signaling in human U87 cells assessed as up regulation of hydroxymethylbilane synthase gene expression at cytotoxic IC50 measured after 48 hrs relative to control
# [17] = Inhibition of RTK/PI3K/AKT/mTOR signaling in human U87 cells assessed as up regulation of synaptogyrin 1 gene expression at cytotoxic IC50 measured after 48 hrs relative to control
# [18] = Inhibition of RTK/PI3K/AKT/mTOR signaling in human U87 cells assessed as down regulation of MEX3B gene expression at cytotoxic IC50 measured after 48 hrs relative to control
# [19] = Inhibition of RTK/PI3K/AKT/mTOR signaling in human U87 cells assessed as down regulation of DCLRE1B gene expression at cytotoxic IC50 measured after 48 hrs relative to control
# [20] = Inhibition of RTK/PI3K/AKT/mTOR signaling in human U87 cells assessed as down regulation of LZTR1 gene expression at cytotoxic IC50 measured after 48 hrs relative to control
# [21] = Inhibition of RTK/PI3K/AKT/mTOR signaling in human U87 cells assessed as down regulation of XRRA1 gene expression at cytotoxic IC50 measured after 48 hrs relative to control
# [22] = Inhibition of RTK/PI3K/AKT/mTOR signaling in human U87 cells assessed as up regulation of LOXL4 gene expression at cytotoxic IC50 measured after 48 hrs relative to control
# [23] = Inhibition of RTK/PI3K/AKT/mTOR signaling in human U87 cells assessed as down regulation of NUDT16 gene expression at cytotoxic IC50 measured after 48 hrs relative to control
# [24] = Inhibition of RTK/PI3K/AKT/mTOR signaling in human U87 cells assessed as down regulation of PIP4K2C gene expression at cytotoxic IC50 measured after 48 hrs relative to control
# [25] = Inhibition of RTK/PI3K/AKT/mTOR signaling in human U87 cells assessed as down regulation of GPS1 gene expression at cytotoxic IC50 measured after 48 hrs relative to control
# [26] = Inhibition of RTK/PI3K/AKT/mTOR signaling in human U87 cells assessed as down regulation of ACTR2 gene expression at cytotoxic IC50 measured after 48 hrs relative to control
# [27] = Inhibition of RTK/PI3K/AKT/mTOR signaling in human U87 cells assessed as up regulation of adenosylmethionine decarboxylase 1 gene expression at cytotoxic IC50 measured after 48 hrs relative to control
# [28] = Inhibition of RTK/PI3K/AKT/mTOR signaling in human U87 cells assessed as down regulation of ZC2HC1A gene expression at cytotoxic IC50 measured after 48 hrs relative to control
# [29] = Inhibition of RTK/PI3K/AKT/mTOR signaling in human U87 cells assessed as up regulation of NFIX gene expression at cytotoxic IC50 measured after 48 hrs relative to control
# [30] = Inhibition of RTK/PI3K/AKT/mTOR signaling in human U87 cells assessed as up regulation of HSPG2 gene expression at cytotoxic IC50 measured after 48 hrs relative to control
# [31] = Inhibition of RTK/PI3K/AKT/mTOR signaling in human U87 cells assessed as down regulation of POLR2J gene expression at cytotoxic IC50 measured after 48 hrs relative to control
# [32] = Inhibition of RTK/PI3K/AKT/mTOR signaling in human U87 cells assessed as down regulation of NCOA3 gene expression at cytotoxic IC50 measured after 48 hrs relative to control
smiles,measurement,setting,value
CC(=O)C(=NNc1ccccc1C#N)C(C)=O,log2FC,[1],-0.439
same,log2FC,[2],-0.628
same,log2FC,[3],-0.605
same,log2FC,[4],-1.36
same,log2FC,[5],2.59
same,log2FC,[6],-0.608
same,log2FC,[7],1.24
same,log2FC,[8],-1.75
same,log2FC,[9],0.861
same,log2FC,[10],-2.49
same,log2FC,[11],-0.605
same,log2FC,[12],-0.504
same,log2FC,[13],1.58
same,log2FC,[14],0.748
same,log2FC,[15],0.897
same,log2FC,[16],0.699
same,log2FC,[17],1.14
same,log2FC,[18],-1.57
same,log2FC,[19],-1.17
same,log2FC,[20],-0.655
same,log2FC,[21],-1.06
same,log2FC,[22],1.76
same,log2FC,[23],-0.926
same,log2FC,[24],-0.683
same,log2FC,[25],-0.588
same,log2FC,[26],-0.436
same,log2FC,[27],0.922
same,log2FC,[28],-0.897
same,log2FC,[29],0.577
same,log2FC,[30],0.601
same,log2FC,[31],-0.747
same,log2FC,[32],-0.461
